Source: paper PMC9085725
For at least one entry, the source does not settle the construct or the ends of the probe.

System: mucin 1 protein (MUC1)
Experiment: graphene oxide fluorescence quenching/recovery with DNase I amplification
Details: graphene oxide 15 ug/mL, DNase I 2 U/mL, probe 40 nM, MUC1 5 ng/mL; 10 mM Tris, 100 mM NaNO3, pH 7.4; 37 °C 15 min with MUC1, GO 5 min, DNase I 37 °C 15 min; fluorescence read at room temperature; commercial protein; label: 5'-FAM; single-stranded DNA

## CCCGTCTTCCAGACAAGAGTGCAGGG [MUC1 aptamer (FAM probe)]
  binding result: binds
